# Test results published in the supplement of paper PMC7830784.
# Counter-ions that a name gives are not always drawn. The list shows a part of the results. Most values lie within the scatter of the assay; repeated measurements hardly agree. Starred links: 1 amine or outer side, 2 acyl side, 3 side chain; linkers in the order of their positions; H or OH if unused. Positions of bridges follow the written chain, without caps; N, C: chain ends. Non-standard residues stand in square brackets, D forms with d. Residues, ends and D or L forms follow the SMILES beside them. *: point of attachment. X1 = NC1=N[C@@H]([C@H](N[*:1])C(=O)[*:2])C[C@H](O)N1; ΔAla(Z-3-ureido) = NC(=O)N/C=C(\N)C(=O)O; β3hOrn = NCCC[C@H](N)CC(=O)*; Dap = NC[C@H](N)C(=O)O
# Test system: Brugia pahangi adult female
# Test: motility inhibition on day 3 relative to DMSO vehicle; higher = more active
# Details: 10 µM; 3 days
row,SMILES,motility inhibition on day 3 [%]
1,O=C(O)COCCN1CCN([C@H](c2ccccc2)c2ccc(Cl)cc2)CC1 [levocetirizine dihydrochloride],2.43
2,CC(O)(P(=O)(O)O)P(=O)(O)O [etidronate disodium],2.98
3,CCC1NC(=O)c2cc(S(N)(=O)=O)c(Cl)cc2N1 (stereo unspecified) [quinethazone],31.8
4,COC(=O)C1=C(C)NC(C)=C(C(=O)OCC(C)C)C1c1ccccc1[N+](=O)[O-] (stereo unspecified) [nisoldipine],74.9
5,COc1ccc(C(=O)Nc2ccccc2CCC2CCCCN2C)cc1 (stereo unspecified) [Encainide hydrochloride],8.03
6,CN1CCN(c2c(F)cc3c(=O)c(C(=O)O)cn4c3c2SCC4)CC1 [rufloxacin hydrochloride],13.2
7,COC(=O)C1=C(C)NC(C)=C(C(=O)OCCN(C)Cc2ccccc2)C1c1cccc([N+](=O)[O-])c1 (stereo unspecified) [Nicardipine hydrochloride],9.08
8,O=C1C(O)=C([C@H]2CC[C@H](c3ccc(Cl)cc3)CC2)C(=O)c2ccccc21 [atovaquone],95.9
9,Cc1ccccc1C(OCCN(C)C)c1ccccc1 (stereo unspecified) [orphenadrine citrate],6.19
10,COc1c2ccoc2cc2oc(=O)ccc12 [bergapten],24.9
11,CN(C)CCOC(c1ccc(Cl)cc1)c1ccccn1 (stereo unspecified) [carbinoxamine maleate],3.51
12,O=C1CCc2ccc(OCCCCN3CCN(c4cccc(Cl)c4Cl)CC3)cc2N1 [aripiprazole],1.8
13,NC(=O)NC1NC(=O)NC1=O (stereo unspecified) [allantoin],8.92
14,O=C1CCC(N2C(=O)c3ccccc3C2=O)C(=O)N1 (stereo unspecified) [thalidomide],3.08
15,CC1(C)S[C@@H]2[C@H](NC(=O)Cc3ccccc3)C(=O)N2[C@H]1C(=O)O [penicillin g potassium],1.07
16,CCCCc1nc(Cl)c(CO)n1Cc1ccc(-c2ccccc2-c2nnn[nH]2)cc1 [losartan],< 0
17,C=CCCCCCCCCC(=O)O [undecylenic acid],28
18,CCN(CC)CCNC(=O)COc1ccc(OC)cc1 [mefexamide],10.8
19,Cc1nc2n(c(=O)c1CCN1CCC(c3noc4cc(F)ccc34)CC1)CCCC2O (stereo unspecified) [paliperidone],2.03
20,CCOc1ccc(NC(=O)CC(C)O)cc1 (stereo unspecified) [bucetin],5.95
21,Clc1ccc(C(Cn2ccnc2)OCc2csc3c(Cl)cccc23)c(Cl)c1 (stereo unspecified) [Sertaconazole nitrate],99.8
22,CC(=O)OCC1=C(C(=O)O)N2C(=O)[C@@H](NC(=O)Cc3cccs3)[C@H]2SC1 [cephalothin sodium],5.21
23,CC(N)C(=O)OC(C)(C)Cc1ccc(Cl)cc1 (stereo unspecified) [Alaproclate hydrochloride],6.23
24,C[C@H]1[C@H](OC(=O)CCC(=O)O)O[C@@H]2O[C@@]3(C)CC[C@H]4[C@H](C)CC[C@@H]1[C@@]24OO3 [Artesunate],< 0
25,C[C@H]1[C@H](OC(=O)CCC(=O)O)O[C@@H]2O[C@@]3(C)CC[C@H]4[C@H](C)CC[C@@H]1[C@@]24OO3 [artesunate],8.13
26,O=C(O)CCNC(=O)c1ccc(/N=N/c2ccc(O)c(C(=O)O)c2)cc1 [balsalazide disodium],17.2

row,SMILES,motility inhibition on day 3 [%]
1,CCC(C)n1ncn(-c2ccc(N3CCN(c4ccc(OCC5COC(Cn6cncn6)(c6ccc(Cl)cc6Cl)O5)cc4)CC3)cc2)c1=O (stereo unspecified) [Itraconazole],79.7
2,Cc1cccc(Nc2ccccc2C(=O)O)c1C [mefenamic acid],35.3
3,CNCCCN1c2ccccc2CCc2ccccc21 [Desipramine hydrochloride],0.484
4,O=C1OC(CN2CCOCC2)CN1/N=C/c1ccc([N+](=O)[O-])o1 (stereo unspecified) [furaltadone],< 0
5,CC[n+]1c(-c2ccccc2)c2cc(N)ccc2c2ccc(N)cc21 [homidium bromide],86.7
6,C[n+]1ccccc1C=NO [Pralidoxime iodide],2.66
7,O=C(O)CN(CCN(CC(=O)O)CC(=O)O)CCN(CC(=O)O)CC(=O)O [pentetic acid],3.26
8,C#CCN(C)CCCOc1ccc(Cl)cc1Cl [Clorgyline hydrochloride],24.9
9,CC(C)NCC(O)c1cc(O)cc(O)c1 (stereo unspecified) [metaproterenol],47
10,CCN(CC)Cc1cc(Nc2ccnc3cc(Cl)ccc23)ccc1O [amodiaquine dihydrochloride],30.7
11,O=C(/C=C/C=C/c1ccc2c(c1)OCO2)N1CCCCC1 [piperine],< 0
12,CCC(=O)OCC(=O)[C@@]1(OC(=O)CC)[C@@H](C)C[C@H]2[C@@H]3CCC4=CC(=O)C=C[C@]4(C)[C@@]3(Cl)[C@@H](O)C[C@@]21C [beclomethasone dipropionate],< 0
13,COc1ccccc1N1CCN(CCCNc2cc(=O)n(C)c(=O)n2C)CC1 [Urapidil hydrochloride],9.11
14,COc1cc(C)c2c(Oc3cccc(C(F)(F)F)c3)c(OC)cc(NC(C)CCCN)c2n1 (stereo unspecified) [Tafenoquine Succinate],63.1
15,CC(=O)Oc1cc2c(s1)CCN(C(C(=O)C1CC1)c1ccccc1F)C2 (stereo unspecified) [prasugrel],3.39
16,Cn1cnc([N+](=O)[O-])c1Sc1ncnc2[nH]cnc12 [Azathioprine],41.8
17,CC(C)C(=O)Nc1ccc([N+](=O)[O-])c(C(F)(F)F)c1 [flutamide],36.6
18,OCCN1C[C@H](O)[C@@H](O)[C@H](O)[C@H]1CO [miglitol],< 0
19,CC(=O)OCC[N+](C)(C)C [acetylcholine],7.1
20,COC(=O)C1=C(C)NC(C)=C(C(=O)OC(C)C)C1c1cccc2nonc12 (stereo unspecified) [isradipine],97.1
21,CC(=O)SCC(Cc1ccccc1)C(=O)NCC(=O)OCc1ccccc1 (stereo unspecified) [racecadotril],18.9
22,CC1COc2c(N3CCN(C)CC3)c(F)cc3c(=O)c(C(=O)O)cn1c23 (stereo unspecified) [ofloxacin],12.6
23,O=C(O)CCCC[C@@H]1SC[C@@H]2NC(=O)N[C@@H]21 [biotin],8.22
24,CN1CCN(c2cc3c(cc2F)c(=O)c(C(=O)O)cn3-c2ccc(F)cc2)CC1 [difloxacin hydrochloride],20.6
25,C[C@H]1COc2c(N3CCN(C)CC3)c(F)cc3c(=O)c(C(=O)O)cn1c23 [levofloxacin],1.32
26,CN(C)CCCN1c2ccccc2CCc2ccccc21 [Imipramine hydrochloride],< 0

# Laid out differently: results already given
row | SMILES | motility inhibition on day 3 [%]
7 | COC(=O)C1=C(C)NC(C)=C(C(=O)OCCN(C)Cc2ccccc2)C1c1cccc([N+](=O)[O-])c1 (stereo unspecified) [Nicardipine hydrochloride] | 9.08
14 | O=C1CCC(N2C(=O)c3ccccc3C2=O)C(=O)N1 (stereo unspecified) [thalidomide] | 3.08
12 | CCC(=O)OCC(=O)[C@@]1(OC(=O)CC)[C@@H](C)C[C@H]2[C@@H]3CCC4=CC(=O)C=C[C@]4(C)[C@@]3(Cl)[C@@H](O)C[C@@]21C [beclomethasone dipropionate] | < 0
19 | CC(=O)OCC[N+](C)(C)C [acetylcholine] | 7.1

# Next part:

row,SMILES,motility inhibition on day 3 [%]
1,NC(CO)C(=O)NNCc1ccc(O)c(O)c1O (stereo unspecified) [Benserazide hydrochloride],0.0134
2,NCCC[C@H](N)CC(=O)N[C@H]1CNC(=O)[C@H]([C@H]2C[C@H](O)NC(N)=N2)NC(=O)/C(=C/NC(N)=O)NC(=O)[C@H](CO)NC(=O)[C@H](CO)NC1=O [viomycin sulfate] (β3hOrn-[Dap]SS[ΔAla(Z-3-ureido)][X1]; lactam 1-C),< 0
3,CN(C/C=C/C#CC(C)(C)C)Cc1cccc2ccccc12 [terbinafine hydrochloride],21.9
4,Fc1ccc([C@@H]2CCNC[C@H]2COc2ccc3c(c2)OCO3)cc1 [paroxetine hydrochloride],14.5
5,Nc1nc(O)c2ncn(CCC(CO)CO)c2n1 [penciclovir],4.51
6,Clc1ccc(Nc2nnc(Cc3ccncc3)c3ccccc23)cc1 [vatalanib dihydrochloride],28.8
7,CN1CCC(OC(c2ccccc2)c2ccccc2)CC1 [diphenylpyraline hydrochloride],< 0
8,O=C(Oc1cccc2cccnc12)c1ccccc1 [benzoxiquine],56.6
9,CCOC(=O)[C@H](CCc1ccccc1)N[C@@H](C)C(=O)N1Cc2cc(OC)c(OC)cc2C[C@H]1C(=O)O [moexipril hydrochloride],7.86
10,C[N+](C)(C)CCO.[Cl-] [choline chloride],3.38
11,O=C(O)CSCC(=O)NC1CCSC1=O (stereo unspecified) [erdosteine],5.07
12,Cc1cc2nc3c(=O)[nH]c(=O)nc-3n(CC(O)C(O)C(O)COP(=O)(O)O)c2cc1C (stereo unspecified) [riboflavin 5-phosphate sodium],< 0
13,CC(C)CN(C[C@@H](O)[C@H](Cc1ccccc1)NC(=O)O[C@H]1CO[C@H]2OCC[C@H]21)S(=O)(=O)c1ccc(N)cc1 [Darunavir],< 0
14,NCC[C@H](O)C(=O)N[C@@H]1C[C@H](N)[C@@H](O[C@H]2O[C@H](CN)[C@@H](O)[C@H](O)[C@H]2O)[C@H](O)[C@H]1O[C@H]1O[C@H](CO)[C@@H](O)[C@H](N)[C@H]1O [amikacin sulfate],33.6
15,O=C1c2cccc3c2[C@H](CCC3)CN1[C@@H]1CN2CCC1CC2 [Palonosetron Hydrochloride],0.751
16,COc1ccccc1OCC(O)COC(N)=O (stereo unspecified) [methocarbamol],8.19
17,Cc1cc(N)c2ccccc2[n+]1CCCCCCCCCC[n+]1c(C)cc(N)c2ccccc21 [dequalinium chloride],52.3
18,Nc1ccn([C@@H]2CS[C@H](CO)O2)c(=O)n1 [lamivudine],0.973
19,Nc1ccn([C@@H]2CS[C@H](CO)O2)c(=O)n1,0.151
20,COC(=O)Nc1nc2cc([S+]([O-])c3ccccc3)ccc2[nH]1 (stereo unspecified) [oxfendazole],19.3
21,CCNC(=O)/C=C/c1cccc(Br)c1 [cinromide],< 0
22,C#C[C@]1(O)CC[C@H]2[C@@H]3CCC4=CC(=NO)CC[C@@H]4[C@H]3CC[C@@]21CC [17-Desacetyl Norgestimate],0.523
23,"COc1ccc2cc(C(C)C(=O)O)ccc2c1 (single isomer, unassigned; (+)) [(+)naproxen]",6.28
24,CO/N=C(\C(=O)N[C@@H]1C(=O)N2C(C(=O)OC(C)OC(C)=O)=C(COC(N)=O)CS[C@H]12)c1ccco1 (stereo partly specified) [cefuroxime axetil],< 0
